Measurements reported in PubChem BioAssay AID743121 (NCATS, 2013)

Screen: 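Genes whose silencing strengthens cell killing by camptothecin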 (primary screen)
Cells: MDA-MB-231 cells, a human breast cancer line
Knock-down reagent: single siRNA against human genes, 20 nM siRNA (0.8 pmol per well)
Timing: 120 h (drug added 48 h after transfection, read 72 h later)
Challenge: camptothecin 20 nM (about EC30) for 72 h; vehicle 0.1% DMSO in parallel plates
Measured: 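Cell viability by ATP luminescence (CellTiter-Glo) as % of non-targeting siRNA wells, and the log2 ratio of viability without drug over viability with camptothecin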
Scale: log2 vehicle/camptothecin viability: higher = stronger sensitisation to camptothecin; viability with camptothecin and viability without drug: higher = more viable cells
Call rule: 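Each gene scored by redundant siRNA activity (RSA) over its individual siRNA ratios; a gene is called active at p < 0.001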
This is an unselected part of about 26,000 reagents tested. Of all reagents, 167 (0.63%) got an active call. 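Calls are per gene from RSA p-values that are not deposited; an individual active-marked siRNA can sensitise only weakly.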 The numbers tell different reagents against one gene apart.

| target gene | siRNA no. | log2 vehicle/camptothecin viability | viability with camptothecin (% of control) | viability without drug (% of control) | call |
| --- | --- | --- | --- | --- | --- |
| OR52B4 (olfactory receptor family 52 subfamily B member 4) | 1 | 0.328 | 44 | 55.2 | inactive |
| OR52B4 (olfactory receptor family 52 subfamily B member 4) | 2 | -0.42 | 106 | 79 | inactive |
| OR52B4 (olfactory receptor family 52 subfamily B member 4) | 3 | -0.369 | 125 | 96.5 | inactive |
| OR52B4 (olfactory receptor family 52 subfamily B member 4) | 4 | -0.232 | 83.6 | 71.2 | inactive |
| GRM7 (glutamate metabotropic receptor 7) | 1 | -0.471 | 98.6 | 71.1 | inactive |
| GRM7 (glutamate metabotropic receptor 7) | 2 | 0.017 | 79.7 | 80.7 | inactive |
| GRM7 (glutamate metabotropic receptor 7) | 3 | -0.213 | 115 | 99.1 | inactive |
| GRM7 (glutamate metabotropic receptor 7) | 4 | 0.15 | 107 | 118 | inactive |
| CUL1 (cullin 1) | 1 | -0.369 | 79.1 | 61.2 | inactive |
| CUL1 (cullin 1) | 2 | 0.251 | 59.1 | 70.3 | inactive |
| CUL1 (cullin 1) | 3 | -0.465 | 107 | 77.4 | inactive |
| CUL1 (cullin 1) | 4 | 0.583 | 7.32 | 11 | inactive |
| GPC2 (glypican 2) | 1 | 0.371 | 19.2 | 24.8 | inactive |
| GPC2 (glypican 2) | 2 | 0.449 | 53.8 | 73.5 | inactive |
| GPC2 (glypican 2) | 3 | 0.526 | 1.99 | 2.86 | inactive |
| GPC2 (glypican 2) | 4 | -0.158 | 9.07 | 8.13 | inactive |
| SH3BP4 (SH3 domain binding protein 4) | 1 | -0.453 | 61.7 | 45.1 | inactive |
| SH3BP4 (SH3 domain binding protein 4) | 2 | 0.414 | 57.3 | 76.4 | inactive |
| SH3BP4 (SH3 domain binding protein 4) | 3 | 1.03 | 19.5 | 39.8 | inactive |
| SH3BP4 (SH3 domain binding protein 4) | 4 | -0.187 | 88.5 | 77.7 | inactive |
| NFX1 (nuclear transcription factor, X-box binding 1) | 1 | 0.158 | 77.1 | 86 | inactive |
| NFX1 (nuclear transcription factor, X-box binding 1) | 2 | -0.0609 | 46.9 | 45 | inactive |
| NFX1 (nuclear transcription factor, X-box binding 1) | 3 | -0.0148 | 85.5 | 84.6 | inactive |
| FBXO24 (F-box protein 24) | 1 | -0.384 | 42.9 | 32.8 | inactive |
| FBXO24 (F-box protein 24) | 2 | -0.362 | 63.2 | 49.2 | inactive |
| FBXO24 (F-box protein 24) | 3 | -0.000819 | 80.3 | 80.2 | inactive |
| FBXO24 (F-box protein 24) | 4 | 0.0103 | 60.6 | 61 | inactive |
| ADAMTS4 (ADAM metallopeptidase with thrombospondin type 1 motif 4) | 1 | -0.243 | 163 | 137 | inactive |
| ADAMTS4 (ADAM metallopeptidase with thrombospondin type 1 motif 4) | 2 | -0.121 | 61.8 | 56.8 | inactive |
| ADAMTS4 (ADAM metallopeptidase with thrombospondin type 1 motif 4) | 3 | -0.0762 | 85.9 | 81.5 | inactive |
| ADAMTS4 (ADAM metallopeptidase with thrombospondin type 1 motif 4) | 4 | -0.359 | 52.8 | 41.2 | inactive |
| S100A13 (S100 calcium binding protein A13) | 1 | -0.191 | 52.8 | 46.3 | inactive |
| S100A13 (S100 calcium binding protein A13) | 2 | -0.276 | 97.3 | 80.4 | inactive |
| S100A13 (S100 calcium binding protein A13) | 3 | -0.407 | 54.2 | 40.9 | inactive |
| S100A13 (S100 calcium binding protein A13) | 4 | -0.0241 | 100 | 98.4 | inactive |
| NTRK3 (neurotrophic receptor tyrosine kinase 3) | 1 | -0.352 | 70.7 | 55.4 | inactive |
| NTRK3 (neurotrophic receptor tyrosine kinase 3) | 2 | 0.0824 | 110 | 116 | inactive |
| NTRK3 (neurotrophic receptor tyrosine kinase 3) | 3 | -0.792 | 60 | 34.6 | inactive |
| NTRK3 (neurotrophic receptor tyrosine kinase 3) | 4 | 0.665 | 29.9 | 47.4 | inactive |
| PABPN1 (poly(A) binding protein nuclear 1) | 1 | -0.302 | 90.1 | 73.1 | inactive |
| PABPN1 (poly(A) binding protein nuclear 1) | 2 | -0.0454 | 88.5 | 85.8 | inactive |
| DFFB (DNA fragmentation factor subunit beta) | 1 | -0.0947 | 115 | 108 | inactive |
| DFFB (DNA fragmentation factor subunit beta) | 2 | -0.0544 | 115 | 110 | inactive |
| DFFB (DNA fragmentation factor subunit beta) | 3 | -0.412 | 58.6 | 44 | inactive |
| DFFB (DNA fragmentation factor subunit beta) | 4 | -0.0179 | 92.7 | 91.6 | inactive |
| NEIL3 (nei like DNA glycosylase 3) | 1 | 0.138 | 86.9 | 95.6 | inactive |
| NEIL3 (nei like DNA glycosylase 3) | 2 | -0.086 | 48.4 | 45.6 | inactive |
| NEIL3 (nei like DNA glycosylase 3) | 3 | 0.175 | 78.4 | 88.5 | inactive |
| NEIL3 (nei like DNA glycosylase 3) | 4 | -0.425 | 90.4 | 67.3 | inactive |
| NME6 (NME/NM23 nucleoside diphosphate kinase 6) | 1 | -0.139 | 83.3 | 75.7 | inactive |
| NME6 (NME/NM23 nucleoside diphosphate kinase 6) | 2 | 0.0501 | 54.6 | 56.5 | inactive |
| NME6 (NME/NM23 nucleoside diphosphate kinase 6) | 3 | -0.0946 | 86.4 | 80.9 | inactive |
| NME6 (NME/NM23 nucleoside diphosphate kinase 6) | 4 | -0.227 | 113 | 96.4 | inactive |
| RAG2 (recombination activating 2) | 1 | 0.0977 | 76.2 | 81.6 | inactive |
| RAG2 (recombination activating 2) | 2 | 0.0235 | 63.1 | 64.2 | inactive |
| RAG2 (recombination activating 2) | 3 | -0.374 | 78.3 | 60.4 | inactive |
| RAG2 (recombination activating 2) | 4 | -0.225 | 56.6 | 48.4 | inactive |
| BTBD6 (BTB domain containing 6) | 1 | -0.231 | 94 | 80.1 | inactive |
| BTBD6 (BTB domain containing 6) | 2 | -0.257 | 60.7 | 50.8 | inactive |
| MS4A8 (membrane spanning 4-domains A8) | 1 | -0.531 | 20.9 | 14.5 | inactive |
| MS4A8 (membrane spanning 4-domains A8) | 2 | -0.0403 | 75.6 | 73.5 | inactive |
| MS4A8 (membrane spanning 4-domains A8) | 3 | 0.082 | 66.5 | 70.4 | inactive |
| MS4A8 (membrane spanning 4-domains A8) | 4 | -0.305 | 124 | 100 | inactive |
| PNMT (phenylethanolamine N-methyltransferase) | 1 | -0.455 | 98.4 | 71.8 | inactive |
| PNMT (phenylethanolamine N-methyltransferase) | 2 | -0.137 | 58.7 | 53.3 | inactive |
| PNMT (phenylethanolamine N-methyltransferase) | 3 | -0.516 | 69 | 48.2 | inactive |
| PNMT (phenylethanolamine N-methyltransferase) | 4 | -0.26 | 93.6 | 78.2 | inactive |
| PTGS1 (prostaglandin-endoperoxide synthase 1) | 1 | -0.225 | 43.7 | 37.4 | inactive |
| PTGS1 (prostaglandin-endoperoxide synthase 1) | 2 | -0.0624 | 79.1 | 75.7 | inactive |
| PTGS1 (prostaglandin-endoperoxide synthase 1) | 3 | -0.236 | 87.4 | 74.3 | inactive |
| PTGS1 (prostaglandin-endoperoxide synthase 1) | 4 | -0.177 | 85 | 75.2 | inactive |

Sorted by “log2 vehicle/camptothecin viability” (ascending): some entries from above.
| target gene | siRNA no. | log2 vehicle/camptothecin viability | viability with camptothecin (% of control) | viability without drug (% of control) | call |
| --- | --- | --- | --- | --- | --- |
| NEIL3 (nei like DNA glycosylase 3) | 4 | -0.425 | 90.4 | 67.3 | inactive |
| DFFB (DNA fragmentation factor subunit beta) | 3 | -0.412 | 58.6 | 44 | inactive |
| NME6 (NME/NM23 nucleoside diphosphate kinase 6) | 1 | -0.139 | 83.3 | 75.7 | inactive |
| DFFB (DNA fragmentation factor subunit beta) | 1 | -0.0947 | 115 | 108 | inactive |
| NEIL3 (nei like DNA glycosylase 3) | 2 | -0.086 | 48.4 | 45.6 | inactive |
| DFFB (DNA fragmentation factor subunit beta) | 2 | -0.0544 | 115 | 110 | inactive |
| PABPN1 (poly(A) binding protein nuclear 1) | 2 | -0.0454 | 88.5 | 85.8 | inactive |
| DFFB (DNA fragmentation factor subunit beta) | 4 | -0.0179 | 92.7 | 91.6 | inactive |
| NEIL3 (nei like DNA glycosylase 3) | 1 | 0.138 | 86.9 | 95.6 | inactive |
| NEIL3 (nei like DNA glycosylase 3) | 3 | 0.175 | 78.4 | 88.5 | inactive |
